Data from PMC12040169 (PLOS Biology, 2025).
The other results are listed elsewhere or left out.

The compounds below were run on T1, CTL2-GFP (C. trachomatis L2/434/Bu, GFP-expressing). Details: bulk GFP, single well; 28.5 h, 10 µM; inhibitor.
T1 construct: L2/434/Bu, GFP-expressing
Parameters: species or system HeLa; Intracellular C. trachomatis growth in HeLa cells, bulk GFP fluorescence relative to DMSO

Structure (SMILES)	% of control remaining
O=C(O)/C=C\C(=O)N(C1CCCCC1)C1CCCCC1 [CBK286562]	95.7973%
Cc1ccc(S(=O)(=O)N2C[C@H](O)C[C@H]2C(=O)O)cc1 [CBK289276]	150.288%
CNC(=O)c1ccc(-c2ccco2)nc1N1CCOCC1 [CBK106212]	74.6818%
COCC1CN(S(=O)(=O)c2cnc3ccsc3c2)C1 [CBK304768]	129.216%
CCNC(Cc1ccc2ccccc2c1)C(=O)OC (stereo not drawn) [CBK071702]	103.039%
Nc1nc(NCCc2ccccc2)nc(-c2cc(Cl)ccc2O)n1 [CBK074551]	101.67%
Cc1cc(C)n(CC(=O)N2CCCC(c3cc4cccnc4[nH]3)C2)n1 (stereo not drawn) [CBK284928]	121.877%
COc1ccc([C@@]23CC[C@@H](NC(=O)N(C)c4ccc(C)cc4)C[C@@H]2N(C)CC3)cc1OC [CBK045681T]	119.933%
C/C(=N\Nc1cc(-c2ccccc2)nc(C)n1)c1ccc(O)cc1 [CBK261710]	100%
COc1cc(C2C3=C(CC(C)(C)CC3=O)Nc3ncnn32)ccc1OCC(=O)N1CCOCC1 (stereo not drawn) [CBK268551]	89.4727%
CC1=NN(c2ccccc2)C(=O)/C1=C\c1ccc(Cl)cc1 [CBK067772]	109.983%
c1ccc(N2CCN(c3cccc(-c4cc5ccccc5o4)n3)CC2)nc1 [CBK036875]	189.562%
O=C(O)c1c[nH]nc1-c1cccc(Br)c1 [CBK286963]	121.484%
COc1ccc(-c2nnc(SC(C)C(=O)Nc3cc(C)no3)n2CC2CCCO2)cc1 (stereo not drawn) [CBK297879]	87.8453%
O=C(O)c1ccc(NC(CC(=O)c2ccccc2)c2ccc(Br)cc2)cc1 (stereo not drawn) [CBK266195C]	121.3%
O=C(O)CSc1nnc(-c2sc3ccccc3c2Cl)n1-c1ccccc1 [CBK263830]	100%
Cc1ccccc1-c1cnc(NS(C)(=O)=O)c(C(=O)N(C)C)c1 [CBK106430]	94.2239%
COCCN1CCn2c(nc3cc(NC(=O)C4CCCCC4)ccc32)C1 [CBK307411]	124.708%
FC(F)(F)c1nc2ccccc2nc1OCCc1c[nH]c2ccccc12 [CBK115843]	72.9188%
CN(C)Cc1cc(CN(C)C)c(O)c(CCc2ccccc2)n1 [CBK278316C]	101.185%
C=CCNC(=O)c1cnc(-c2ccc(Cl)cc2)c(-c2ccco2)c1 [CBK036738]	150.898%
CN(C)CCn1c(=O)[nH]c2ncc(-c3ccoc3)nc21 [CBK064294]	173.468%
COCCNC(=O)c1c(NC(=O)c2ccccc2C)sc2c1CCCC2 [CBK091645]	121.396%
O=C1CCC(=O)N1CCOc1nccnc1N1CCNCC1 [CBK074030T]	120.473%
O=c1[nH]c2ncc(-c3ccco3)nc2n1CCCN1CCOCC1 [CBK064319]	170.925%
CN(C)CCN1CCN(c2cc(Nc3ccc(N(C)C)cc3)nc3ccnn23)CC1 [CBK037211]	193.048%

10 structures out of the list, ordered by length of the SMILES, smallest number first:
Structure (SMILES)	% of control remaining
CCNC(Cc1ccc2ccccc2c1)C(=O)OC (stereo not drawn) [CBK071702]	103.039%
COCC1CN(S(=O)(=O)c2cnc3ccsc3c2)C1 [CBK304768]	129.216%
O=C(O)/C=C\C(=O)N(C1CCCCC1)C1CCCCC1 [CBK286562]	95.7973%
CN(C)CCn1c(=O)[nH]c2ncc(-c3ccoc3)nc21 [CBK064294]	173.468%
COCCNC(=O)c1c(NC(=O)c2ccccc2C)sc2c1CCCC2 [CBK091645]	121.396%
FC(F)(F)c1nc2ccccc2nc1OCCc1c[nH]c2ccccc12 [CBK115843]	72.9188%
C/C(=N\Nc1cc(-c2ccccc2)nc(C)n1)c1ccc(O)cc1 [CBK261710]	100%
C=CCNC(=O)c1cnc(-c2ccc(Cl)cc2)c(-c2ccco2)c1 [CBK036738]	150.898%
Cc1ccc(S(=O)(=O)N2C[C@H](O)C[C@H]2C(=O)O)cc1 [CBK289276]	150.288%
Cc1cc(C)n(CC(=O)N2CCCC(c3cc4cccnc4[nH]3)C2)n1 (stereo not drawn) [CBK284928]	121.877%

Further compounds.

Structure (SMILES)	% of control remaining
O=C(O)COc1noc2nc3c(cc12)CCCCC3 [CBK269429]	113.6%
CCCNC(=O)Cn1nc(CC)n2c(cc3ccsc32)c1=O [CBK284130]	113.226%
O=C(O)c1ccc(CNC2CC(=O)N(c3ccc(F)cc3)C2=O)cc1 (stereo not drawn) [CBK286727]	120.038%
Cc1[nH]c(=O)[nH]c(=S)c1C(=O)Nc1ccc(Cl)cc1C#N [CBK115502]	129.202%
CCOC(=O)N1CCC(NC(=O)N(CCc2ccccc2)Cc2ccccc2)CC1 [CBK155359]	77.8006%
CCOc1ccccc1NC(=O)NCc1cccnc1 [CBK267026]	184.277%
CN1CCc2c(sc3nc(SCc4ccc(Cl)c(Cl)c4)n(-c4ccccc4)c(=O)c23)C1 [CBK263706]	113.489%
CCN1C(=O)CC2(C1=O)C(=O)N(Cc1nc(OC)cc(OC)n1)c1ccccc12 (stereo not drawn) [CBK075510]	181.923%
Cc1nn(-c2ccccc2)c(C)c1CNC(=O)C1C2C=CC(C2)C1C(=O)O (stereo not drawn) [CBK286877]	112.393%
Brc1c(OCCNCCN2CCOCC2)ccc2ccccc12 [CBK268576G]	98.8892%
O=P(O)(CCc1ccccn1)CN1CCCCC1 [CBK262312]	97.393%
COC(=O)[C@@H](C)NC(=O)[C@@H]1CN(C(=O)NC(C)C)CCN1C(=O)c1cccs1 [CBK289624]	91.0527%
Cc1ccc(NC(=O)CCc2c(C)nc(N3CCOCC3)[nH]c2=O)cc1 [CBK304985]	93.0425%
NC(=O)c1c(NC(=O)Cn2ccc([N+](=O)[O-])n2)sc2c1CCCC2 [CBK269139]	99.1615%
COc1ccc(CN2CCN(C(=O)c3ccc(C#N)cc3)CC2)cc1 [CBK305698]	120.634%
COc1cc(Nc2cc(-c3ccc(F)c(F)c3)ncn2)cc(OC)c1OC [CBK090711]	138.749%
Cc1c(-c2ccc(OCC(N)=O)cc2)nc2ccc(Br)cc2c1C(=O)O [CBK287050]	132.544%
O=[N+]([O-])c1ccccc1S(=O)(=O)N1CCN(S(=O)(=O)c2ccc3ccccc3c2)CC1 [CBK264296]	121.288%
COc1ccc(C(C)NC2CCN(c3nc(C)cs3)CC2)cc1F (stereo not drawn) [CBK306362]	151.663%
O=C(Cn1c(C2CCNCC2)cc2cccnc21)N1CCCC1 [CBK285013]	111.451%
O=C1/C(=C\Nc2cccc3cccnc23)Sc2ccccc21 [CBK261647]	101.24%
O=C(c1sc2ccccc2c1Cl)n1cnc2ccccc21 [CBK262216]	128.601%
OCCOCCN1CCN(C(=S)Nc2ccccc2)CC1 [CBK018046]	124.321%
O=C(/C=C/c1ccc(Br)cc1)N1CCN(Cc2ccc3c(c2)OCO3)CC1 [CBK074434]	100.686%
Cc1cccc(Nc2[nH]c3cc(C)ccc3c2[N+](=O)[O-])c1 [CBK266303]	128.619%
